Laboratory results reported in patent US20260034234A1 (AGENSYS, published 2026).
Results are given in words; binding and its absence hold for the method and conditions named. Some binding calls cover weakened binding; strength is not graded here.

By UniProt entry, the sequences of proteins in these tests, tags left out. Where a name states a change or a piece, a line headed by the entry shows the natural chain unless it says otherwise. Chains listed by the source or under a name are the forms on record and can include a tag or linker.
Murine ortholog of 191P4D12, N90S mutant (on PC3 cells) (Q8R007, form named): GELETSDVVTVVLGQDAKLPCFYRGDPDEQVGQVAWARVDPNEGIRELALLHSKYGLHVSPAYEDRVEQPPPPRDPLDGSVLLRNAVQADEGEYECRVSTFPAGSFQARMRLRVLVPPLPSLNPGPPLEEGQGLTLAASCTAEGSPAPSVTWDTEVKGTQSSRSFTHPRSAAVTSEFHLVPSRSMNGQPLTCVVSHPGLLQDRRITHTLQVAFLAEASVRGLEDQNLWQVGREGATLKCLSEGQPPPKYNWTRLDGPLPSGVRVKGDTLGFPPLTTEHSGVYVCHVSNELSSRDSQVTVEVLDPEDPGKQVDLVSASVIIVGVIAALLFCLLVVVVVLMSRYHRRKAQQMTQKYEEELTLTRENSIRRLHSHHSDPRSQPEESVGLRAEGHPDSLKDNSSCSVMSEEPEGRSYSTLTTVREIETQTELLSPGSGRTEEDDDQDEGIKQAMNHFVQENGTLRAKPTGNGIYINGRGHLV

Tests used:
[1] = target: Murine ortholog of 191P4D12, N90S mutant (on PC3 cells) (mouse) (UniProt Q8R007); experiment: FACS on PC3 cells expressing the mutant
[2] = target: Murine ortholog of 191P4D12, N90S mutant (on PC3 cells) (mouse) (UniProt Q8R007); experiment: FACS titration of Ha22-2(2,4)6.1 on PC3 cells expressing mouse 191P4D12 N90S
[3] = target: Cynomolgus 191P4D12 (on PC3 cells) (cynomolgus monkey); experiment: FACS titration on PC3 cells expressing the cynomolgus ortholog
[4] = target: Cynomolgus 191P4D12 (on PC3 cells) (cynomolgus monkey); experiment: FACS on PC3 cells
[5] = target: Cynomolgus 191P4D12 (on PC3 cells) (cynomolgus monkey); experiment: FACS on PC3 cells expressing the ortholog

Measured: binding

B1: Ha22-2(2,4)6.1 MAb (antibody, human IgG1, kappa, V domains shown)
VH: EVQLVESGGGLVQPGGSLRLSCAASGFTFSSYNMNWVRQAPGKGLEWVSYISSSSSTIYYADSVKGRFTISRDNAKNSLSLQMNSLRDEDTAVYYCARAYYYGMDVWGQGTTVTVSS
VL: DIQMTQSPSSVSASVGDRVTITCRASQGISGWLAWYQQKPGKAPKFLIYAASTLQSGVPSRFSGSGSGTDFTLTISSLQPEDFATYYCQQANSFPPTFGGGTKVEIKR
notes: Fully human IgG1 kappa from XenoMouse; Used biotinylated in the Western blot; also called 191P4D12 MAb Ha22-2(2,4)6.1; Ha22-(2,4)6.1 MAb
binds: all assays above
